Taken from: PubChem BioAssay AID1259254 (NCATS, 2017)

Aim: 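Finding genes that stop cells copying their DNA twice in one cycle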 (primary screen)
Cells: human HCT116 colorectal cancer cells
Reagents: single siRNA against human genes
Duration: 3 days
Measurement: 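Nuclei stained with Hoechst and imaged; cell-cycle phase assigned by DNA content; G2 share scaled per plate, non-targeting siRNA 0%, GMNN siRNA 100%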
Scale: G2 robust z-score and G2 cells, % of GMNN control: higher = more G2 cells, more excess DNA replication; raw share of cells in G2: higher = larger share of cells with G2 DNA content
Hit rule: 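Active siRNAs have a G2 robust z of 5 or more median absolute deviations over the median, which in these data means about 38% or higher of GMNN control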
Shown is an unselected part of about 59,000 reagents. About 1,550 of all reagents (2.6%) were called active. 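G2 share is only a proxy for re-replication; each gene was hit by three separate siRNAs, and active genes were retested.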 Raw values vary from plate to plate and are shown uncorrected. Unmarked entries are inactive. Reagents against one gene are numbered here. Reagent sequences are not shown. Not given: the amount of reagent.

Target gene,siRNA no.,G2 robust z-score,"G2 cells, % of GMNN control",raw share of cells in G2 (%)
WDTC1,1,0.384,5.67,5.81
WDTC1,2,0.573,7,6.5
WDTC1,3,0.303,5.1,8.41
IDH3G,1,1.05,10.4,8.82
IDH3G,2,-0.374,0.337,4.33
IDH3G,3,-0.622,-1.41,5.15
FMNL2,1,4.11,31.9,16.5
FMNL2,2,1.02,10.2,9.32
FMNL2,3,2.19,18.4,14.2
KIF13A,1,-0.907,-3.42,4.23
KIF13A,2,-0.807,-2.71,3.39
KIF13A,3,-0.543,-0.85,3.92
EXOSC1,1,-0.22,1.42,4.34
EXOSC1,2,-0.468,-0.324,5.81
EXOSC1,3,0.918,9.42,7.73
LRRC39,1,0.18,4.24,5.77
LRRC39,2,-0.508,-0.609,2.91
LRRC39,3,-0.376,0.322,2.7
SLC12A7,1,-0.996,-4.04,4.89
SLC12A7,2,0.216,4.49,5.29
SLC12A7,3,-1.33,-6.38,2.92
FBRS,1,0.956,9.69,8.8
FBRS,2,-0.844,-2.97,3.28
FBRS,3,-1.09,-4.68,1.46

5 entries from above, ordered by “raw share of cells in G2 (%)”, lowest first.
Target gene,siRNA no.,G2 robust z-score,"G2 cells, % of GMNN control",raw share of cells in G2 (%)
SLC12A7,3,-1.33,-6.38,2.92
FBRS,2,-0.844,-2.97,3.28
SLC12A7,1,-0.996,-4.04,4.89
SLC12A7,2,0.216,4.49,5.29
FBRS,1,0.956,9.69,8.8

The listing continues:
Target gene,siRNA no.,G2 robust z-score,"G2 cells, % of GMNN control",raw share of cells in G2 (%)
SMARCA2,1,-0.919,-3.5,4.5
SMARCA2,2,1.41,12.9,8.96
SMARCA2,3,-0.918,-3.49,2.8
HMCN2,1,-0.567,-1.03,3.21
HMCN2,2,2.93,23.6,12.4
HMCN2,3,1.2,11.4,8.04
HMCN2,4,0.069,3.45,6.22
HMCN2,5,-1.03,-4.25,2.17
HMCN2,6,-0.00212,2.95,4.32
HMCN2,7,0.4,5.78,4.88
HMCN2,8,1.05,10.4,7.48
HMCN2,9,0.109,3.73,4.19
